# The list shows a part of the results. The main result of the screen is listed elsewhere. These columns were measured beside it and carry no call. Compounds called inactive in the main read-out are mostly missing here. Words in brackets tell the shape of the fitted curve; partial curves, single points and poor fits give uncertain potencies.
# Assay: qHTS Assay to Find Inhibitors of Chronic Active B-Cell Receptor Signaling
# Details: ABC-DLBCL IkBa-CBG/CBR reporter, luminescence ratio (green luciferase fused to IkBa over red control in TMD8 lymphoma cells), 4 h
# Summary of the method: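 Concentration-response series (up to 46 uM) were applied to TMD8 dual-reporter cells for 4 h at 37C with doxycycline. Green/red ratio, after filter-overlap correction, defined %Activity; red signal alone was normalised to basal cells and zero luminescence.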
# [1] = measured here: CBR red luminescence, cell number
# [2] = measured here: IkBa-CBG green luminescence
Compound,AC50 [1],AC50 [2]
CCn1cnc2cc(NCc3ccc(C)cc3)ccc21,"0.0103 µM [rising, full curve, poor fit]",
Cc1[nH]nc(-c2ccc(OCc3cnn(-c4ccccc4)c3)cc2O)c1Oc1ccc(Cl)cc1,"1.3 µM [rising, partial curve, poor fit]",
O/N=C/c1cc(Cl)ccc1OCc1cccc2ccccc12,"11.2 µM [rising, partial curve, poor fit]",
N/C(=N\OC(=O)COc1ccccc1)c1ccccn1,"10.3 µM [falling, partial curve]",
COc1ccccc1[C@@H]1C(c2ccccc2)=NN(c2ccc(Br)cc2)[C@H]1C(=O)N1CCOC1=O,"6.51 µM [rising, single point]",
CN(C)CCN(C(=O)CCc1ccccc1)c1nc2c(F)cc(F)cc2s1,"35.5 µM [falling, single point]",
CC/C(=N\NC(=S)NC(C)C)c1ccc(OC(F)F)cc1,,"25.1 µM [falling, single point]"
Cc1ccc(C(=O)C2=C(O)C(=O)N(c3ncccn3)C2c2ccccc2F)o1 (configuration not stated),"12.6 µM [falling, partial curve, poor fit]",
Cc1cccc(NC(=S)/N=C(\N)Nc2nc(C)c3ccc(C)cc3n2)c1,"1.12 µM [falling, full curve]",
CC(=O)N1CC(=O)N=C1SCC(=O)Nc1nc(-c2ccccc2)c(-c2ccccc2)s1,"29.1 µM [rising, single point]",
CC(C)c1ccccc1NC(=O)CNCCc1ccc(C(F)(F)F)cc1,"22.4 µM [falling, single point]",
Cn1c(CCNC(=O)C2CCCCC2)nc2cc(NC(=O)c3cccs3)ccc21,"0.891 µM [falling, full curve, poor fit]",
O=c1c2ccccc2ncn1CCCOc1ccccc1[N+](=O)[O-],"3.55 µM [rising, full curve]",
C=CCNC(=S)N/N=C(\C)c1cccc(OC)c1,"9.2 µM [rising, partial curve]","16.4 µM [falling, single point]"
O=C(Nc1ccc(Cl)c(Cl)c1)Nc1ccccc1NS(=O)(=O)c1cccs1,"29.1 µM [falling, single point]",
COc1ccc(C(=O)/C=C/c2cn(CN3CCN(C)CC3)c3ccccc23)cc1,"2.59 µM [falling, partial curve, poor fit]",
O=C(O)c1cccc(-c2ccc(/C=N/Nc3nn[nH]n3)o2)c1,"7.08 µM [falling, partial curve]",
COc1ccc(NC(=O)c2sc(NC(=O)COc3ccccc3)nc2C)cc1,"3.98 µM [falling, full curve]",
Cc1cc(NS(=O)(=O)c2ccc(NC(=O)Cc3ccc([N+](=O)[O-])cc3)cc2)nc(C)n1,"32.6 µM [rising, single point]",
COc1ccc(-c2nc3ccc([N+](=O)[O-])cc3o2)cc1,"0.116 µM [rising, full curve, poor fit]",

# Reformatted bar-delimited: part of the list above
Compound | AC50 [1] | AC50 [2]
N/C(=N\OC(=O)COc1ccccc1)c1ccccn1 | 10.3 µM [falling, partial curve] | 
COc1ccccc1[C@@H]1C(c2ccccc2)=NN(c2ccc(Br)cc2)[C@H]1C(=O)N1CCOC1=O | 6.51 µM [rising, single point] | 
CN(C)CCN(C(=O)CCc1ccccc1)c1nc2c(F)cc(F)cc2s1 | 35.5 µM [falling, single point] | 

# Going on with the list:

Compound,AC50 [1],AC50 [2]
COc1cccc(S(=O)(=O)NCc2ccc(C(=O)Nc3ccc(Cl)c(Cl)c3)cc2)c1,"20.6 µM [rising, single point]",
Cc1nn(C)cc1/C=N\NC(=O)Cc1ccc([N+](=O)[O-])cc1,"4.11 µM [rising, partial curve, poor fit]",
CCCC(=O)N(c1ccc2oc(=O)sc2c1)S(=O)(=O)c1cccs1,"35.5 µM [falling, single point]",
Cc1ccc(CNC(=O)C2CC3Cn4c(nc5cc6ccccc6cc54)C3N2C)o1 (configuration not stated),"4.47 µM [falling, full curve]",
CN1C(=O)/C(=C/c2ccccc2Cl)Sc2ccc(C(=O)NCc3cccnc3)cc21,"35.5 µM [falling, single point]",
COc1ccc(C2=C(Nc3ccccc3)c3ccccc3C2=O)cc1,"0.517 µM [rising, full curve, poor fit]",
CC(C)c1ccc(OCc2ccc(C(=O)N3CCN(c4ccccn4)CC3)cc2)cc1,"3.55 µM [rising, single point]",
COc1ccc2sc(-c3ccc(N(C)C)cc3)c(C#CCCO)c2c1,"1.84 µM [rising, partial curve]",
O=C1c2cccc3cccc(c23)C(=O)N1Cc1ccccc1,"0.501 µM [falling, full curve, poor fit]",
O=C(N/N=C/c1ccc(Sc2ccccn2)o1)c1cc2ccccc2cc1O,"13 µM [falling, partial curve]",
Cc1cc(C)c(C)c(S(=O)(=O)N2CCN(C(=O)c3ccccn3)CC2)c1C,"2.59 µM [rising, full curve, poor fit]",
NCC(c1ccccc1)c1c[nH]c2ccccc12 (configuration not stated),"20 µM [falling, partial curve, poor fit]",
O=C(Nc1cnc2ccccn2c1=O)c1ccc(Cl)cc1Cl,"7.94 µM [rising, partial curve, poor fit]",
Cc1cc(C(=O)COC(=O)/C=C/c2cccc(F)c2)c(C)n1C,"7.94 µM [rising, partial curve, poor fit]",
CCOC(=O)[C@H]1[C@H]2COc3ccc(Cl)cc3[C@@H]2N2C(=O)c3ccc(Cl)cc3NC(=O)[C@@]12C,"2.59 µM [falling, single point]",
Nc1ncnc(Sc2ccc(Cl)cc2)c1[N+](=O)[O-],"2.06 µM [falling, full curve]",
O=C(/C=C/c1ccc(Cl)c([N+](=O)[O-])c1)c1ccc(O)cc1,"15.8 µM [falling, partial curve]","15.8 µM [rising, partial curve, poor fit]"
C[C@@H]1C(=O)O[C@H]2[C@H]1CC[C@@]1(C)C(=O)C=C[C@@](C)(O)[C@H]21,"11.2 µM [rising, partial curve, poor fit]",
C/C(=N\O)C(C)(C)NC(=O)Nc1ccc(Cl)cc1,"9.2 µM [rising, partial curve, poor fit]",
O=C1c2ccccc2C(=O)N1CCn1nc(Cl)nc1Cl,"0.206 µM [rising, partial curve, poor fit]",
